# This is one part of the list. The main result of the screen is listed elsewhere. These columns were measured beside it and carry no call. Most of these compounds were active or inconclusive in the main read-out, so they are no random draw. The note in brackets gives the kind of curve behind each potency; many fits are weak.
# Assay: qHTS Assay for Lipid Storage Modulators in Drosophila S3 Cells;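 for cell number change: cells counted by Cell Tracker Red CMTPX staining in the red channel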
# Settings: BODIPY lipid droplet fluorescence, 18-24 h; for cell number change: measured here: cell count max response, cells fed with added oleic acid
# Summary of the method: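 Laser-scanning cytometry quantifies lipid droplet accumulation (500–530 nm total intensity; droplet/cell object ratio) in oleic acid-fed (400 uM added) Drosophila S3 cells treated with a concentration series. 20 uM Triacsin C defined 100% inhibition.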
# [1] = measured here: cell number channel AC50, cells fed with added oleic acid
# [2] = measured here: lipid fluorescence (Fed channel) AC50, cells fed with added oleic acid
Structure (SMILES),AC50 [1],AC50 [2],cell number change [%]
O=Cc1cn(CC(=O)N2CCc3ccccc32)c2ccccc12,"0.731 µM [falling, partial curve, poor fit]","0.731 µM [falling, full curve]",
Nc1[nH]n(-c2ccccc2)c(=O)c1N=Nc1ccc2c(c1)OCCO2,,"18.4 µM [falling, single point]",-28.7
COc1ccc(C(=O)NCCCN2CCN(CCCNC(=O)c3ccc(OC)c(OC)c3)CC2)cc1OC,,"1.16 µM [rising, full curve]",-9.78
CCOC(=O)N1CCN(c2cc(N)c([N+](=O)[O-])cc2F)CC1,,"25.9 µM [falling, single point]",-25.1
CCN(CCn1cccn1)C(=O)CC1C(=O)NCCN1CCc1ccccc1 (stereo not drawn),,,16
O=c1c2ccccc2c(/C=N/c2nnc(Cc3ccccc3)s2)c(O)n1-c1ccc(Cl)cn1,,,-2.08
O=C(CSc1nnc(-c2n[nH]c3ccccc23)n1-c1ccccc1)Nc1cccc(Cl)c1,"4.11 µM [rising, full curve]","6.51 µM [rising, single point]",36.3
c1ccc(OCCSc2nnc3sc4ccccc4n23)cc1,,"29.1 µM [rising, single point]",6.68
COc1ccc(-c2nnc(SCC(=O)N3CCC(Cc4ccccc4)CC3)o2)cc1OC,"2.06 µM [rising, full curve, poor fit]","0.00517 µM [rising, full curve, poor fit]",28.5
COc1ccc(C(=O)N(Cc2ccc(N(C)C)cc2)C2CCS(=O)(=O)C2)cc1 (stereo not drawn),,,-13
Cc1cccc(NC(=O)c2ccccc2NC(=O)C2CCCCC2)c1C,,"29.1 µM [falling, single point]",1.16
COc1ccc(CC2NCCC3(O)CCCCC23)cc1 (stereo not drawn),"4.11 µM [falling, single point]","2.91 µM [falling, partial curve]",23.8
N#CC1=C2SCN(Cc3ccccc3)CN2C(=O)CC1c1ccccc1F (stereo not drawn),,"0.0058 µM [rising, full curve, poor fit]",12.8
Cc1ccc(-n2[nH]c(C)c(/C=N/Nc3ccc([N+](=O)[O-])cc3[N+](=O)[O-])c2=O)cc1,,,8.27
CC(C)(C)OC(=O)NCCc1nnc(SCc2c(Cl)cccc2Cl)o1,"5.17 µM [rising, partial curve, poor fit]",,60.1
C/C(=N\NC(=O)c1nnn(-c2nonc2N)c1CSc1ccccc1)c1ccc2c(c1)OCO2,,,-1.9
CC1(C)Cc2c(c(N3CCOCC3)nc3snc(NC(=O)c4ccccc4)c23)CO1,"0.259 µM [rising, full curve, poor fit]","18.4 µM [rising, single point]",31.6
CCc1nc2ccccc2c(C(=O)Nc2ccc(F)cc2)c1C,,"29.1 µM [rising, single point]",19.2
CCN1C(=NCCc2cccnc2)N[C@@H](c2ccccc2)C(C(=O)OC)=C1C,,"6.51 µM [rising, single point]",6.89

# Nine structures already listed, arranged by number of heavy atoms, high to low:
Structure (SMILES),AC50 [1],AC50 [2],cell number change [%]
COc1ccc(C(=O)NCCCN2CCN(CCCNC(=O)c3ccc(OC)c(OC)c3)CC2)cc1OC,,"1.16 µM [rising, full curve]",-9.78
C/C(=N\NC(=O)c1nnn(-c2nonc2N)c1CSc1ccccc1)c1ccc2c(c1)OCO2,,,-1.9
O=c1c2ccccc2c(/C=N/c2nnc(Cc3ccccc3)s2)c(O)n1-c1ccc(Cl)cn1,,,-2.08
CCN1C(=NCCc2cccnc2)N[C@@H](c2ccccc2)C(C(=O)OC)=C1C,,"6.51 µM [rising, single point]",6.89
N#CC1=C2SCN(Cc3ccccc3)CN2C(=O)CC1c1ccccc1F (stereo not drawn),,"0.0058 µM [rising, full curve, poor fit]",12.8
Nc1[nH]n(-c2ccccc2)c(=O)c1N=Nc1ccc2c(c1)OCCO2,,"18.4 µM [falling, single point]",-28.7
O=Cc1cn(CC(=O)N2CCc3ccccc32)c2ccccc12,"0.731 µM [falling, partial curve, poor fit]","0.731 µM [falling, full curve]",
c1ccc(OCCSc2nnc3sc4ccccc4n23)cc1,,"29.1 µM [rising, single point]",6.68
COc1ccc(CC2NCCC3(O)CCCCC23)cc1 (stereo not drawn),"4.11 µM [falling, single point]","2.91 µM [falling, partial curve]",23.8

# (more compounds)

Structure (SMILES),AC50 [1],AC50 [2],cell number change [%]
O=C(O)c1cccc(COCC(F)(F)C(F)F)c1,,"11.6 µM [rising, single point]",-1.03
COC(=O)C1=C(CSc2nnnn2C)NC(=O)NC1c1cc(C)ccc1C (stereo not drawn),,"9.2 µM [rising, partial curve]",-7.78
C[C@H](NC(=O)c1ccco1)C(=O)Nc1ccc2c(c1)OCO2,,,3.2
O=C(CCCC(=O)N1CCCc2ccccc21)N1CCCc2ccccc21,,"0.92 µM [falling, full curve, poor fit]",-10.9
Cc1ccc(S(=O)(=O)NCC(=O)NCC(=O)N(C)Cc2ccc3ccccc3c2)cc1C,"0.103 µM [rising, full curve, poor fit]","1.84 µM [falling, partial curve]",-5.42
CC(OC(=O)c1cccc(S(=O)(=O)N(C)C)c1)C(=O)NCc1ccc2c(c1)OCO2 (stereo not drawn),"1.16 µM [falling, single point]",,
COc1ccc(OC)c(NC(=O)CN2CCC(NC(=O)c3ccccc3C)CC2)c1,,"6.51 µM [falling, single point]",-23.8
CN(C)CC(=O)c1ccc(-c2ccccc2)cc1,,,-18.3
Cc1cc(=O)cc(C)[nH]1,"3.66 µM [falling, full curve]","29.1 µM [falling, partial curve, poor fit]",-56
Cn1c(=O)cc(OCCCC(=O)NCc2ccc3c(c2)OCO3)c2ccccc21,,"6.51 µM [rising, partial curve]",14.7
O=C(c1ccco1)N1CCCC(c2nc(-c3ccc(S(=O)(=O)NCc4ccccc4)cc3)no2)C1 (stereo not drawn),,"18.4 µM [falling, single point]",-22.7
CCCOc1ccc(CCc2n[nH]c(=S)n2Cc2ccccc2)cc1,"16.4 µM [falling, partial curve]","18.4 µM [falling, partial curve]",-68.6
COc1ccc(OCC(=O)NNC(=O)C(=O)N2CCCC2)cc1,"0.82 µM [rising, partial curve, poor fit]","0.82 µM [rising, partial curve, poor fit]",
CCC(=O)CCC(=O)c1ccc2ccccc2c1,,,18.1
Cc1ccc(CCCNC(=O)C2CCC(=O)N(Cc3cccc(F)c3)C2)cc1 (stereo not drawn),,"3.66 µM [falling, full curve]",17.9
CCN(CC)S(=O)(=O)c1ccc(Cl)c(C(=O)OCC(=O)c2c(N)n(C)c(=O)n(C)c2=O)c1,"9.2 µM [falling, partial curve, poor fit]","8.2 µM [falling, partial curve]",-51.4
N/C(=N\OS(=O)(=O)c1ccc(Cl)cc1)c1ccncc1,,"23.1 µM [rising, partial curve]",93.2
COC(=O)c1[nH]c2ccccc2c1NC(=O)CCN1CCN(C2CCCCC2)CC1,,"2.06 µM [falling, partial curve, poor fit]",-7.11

# Source: PubChem BioAssay AID2685 (National Center for Advancing Translational Sciences (NCATS), 2010)
